About 6,100 (1.1%) of roughly 580,000 compounds were called active. The shares of active, inactive and inconclusive entries below differ from those in the screen. Calls follow the shape of the dose curve; as a rule, active = well fitted inhibition curve with a large enough effect; inconclusive = small, poorly fitted or top-dose-only effect, or another doubt; inactive = no such curve, though single readings can be large or run the other way. Potencies of inconclusive entries are doubtful fits and often do not repeat.
The molecules below were run against Polyunsaturated fatty acid lipoxygenase ALOX12 (Homo sapiens) (UniProt P18054) (assay: Primary qHTS assay for inhibitors of human arachidonate 12S-lipoxygenase (ALOX12): Round 2). Details: purified 12hLO, xylenol orange hydroperoxide absorbance; activity change, negative = inhibition: at 108 µM (top of the series) unless noted.
Outline: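 Purified human 12hLO at 150 nM in 25 mM Hepes, 0.01% Triton X-100, pH 7.0, preincubated 15 min at room temperature with compound. Reaction started with 40 uM arachidonic acid, 30 min at room temperature. Hydroperoxide measured by Fe-xylenol orange, 573/405 nm absorbance ratio.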
% is scaled to controls: 0 for no effect and ±100 for the full control effect; potency is read from the fitted curve at half-maximal effect.

Amino acid sequences for entries named in this document (tags omitted). A change or cut given only in a name is not applied to a line headed by its entry.
UniProt P18054: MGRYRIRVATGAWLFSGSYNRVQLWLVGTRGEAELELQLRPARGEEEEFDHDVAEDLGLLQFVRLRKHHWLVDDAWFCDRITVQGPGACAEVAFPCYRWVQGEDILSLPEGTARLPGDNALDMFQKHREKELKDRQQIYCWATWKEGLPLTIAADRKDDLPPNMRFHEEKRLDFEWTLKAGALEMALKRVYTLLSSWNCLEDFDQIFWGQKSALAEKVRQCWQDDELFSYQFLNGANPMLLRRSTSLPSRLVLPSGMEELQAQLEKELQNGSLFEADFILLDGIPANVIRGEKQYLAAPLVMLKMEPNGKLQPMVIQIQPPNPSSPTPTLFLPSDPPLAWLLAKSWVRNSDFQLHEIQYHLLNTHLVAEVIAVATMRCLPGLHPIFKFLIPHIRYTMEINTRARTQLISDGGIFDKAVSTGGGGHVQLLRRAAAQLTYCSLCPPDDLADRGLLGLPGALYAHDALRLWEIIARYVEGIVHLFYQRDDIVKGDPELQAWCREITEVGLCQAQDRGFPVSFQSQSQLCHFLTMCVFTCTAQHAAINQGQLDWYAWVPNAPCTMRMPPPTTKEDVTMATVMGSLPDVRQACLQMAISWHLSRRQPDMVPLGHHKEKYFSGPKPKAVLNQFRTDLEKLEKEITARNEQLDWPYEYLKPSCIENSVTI

SMILES | Potency | activity change, negative = inhibition
NS(=O)(=O)c1ccc(CCNC(=O)CSc2ccc([N+](=O)[O-])cc2)cc1 | inconclusive: 50.1 µM [inhibitor, partial curve, poor fit] | 
Nc1nc(=O)c2ccccc2s1 | inconclusive: 50.1 µM [inhibitor, partial curve, poor fit] | 
O=C1CN(C(=O)COC(=O)c2cccs2)c2ccccc2N1 |  | inactive: -1.25%
CCN(c1ccc(OC)cc1)S(=O)(=O)N1CCCC(C(=O)NC(C)c2ccccc2)C1 (configuration not stated) |  | inactive: 409%
CCCc1nc2nc(C)c(NS(=O)(=O)c3ccc(F)cc3)c(=O)n2[nH]1 | inconclusive: 50.1 µM [inhibitor, partial curve, poor fit] | 
Cc1ccccc1-c1nnc(NC(=O)Nc2ccccc2)s1 |  | inactive: -15.7%
CCN(CC)C(=O)c1cccc(NC(=O)c2cccc3cccnc23)c1 |  | inactive: -23%
COc1ccc(C(CC(=O)N2CCCC(C)C2)c2c(OC)cc(OC)c3ccc(=O)oc23)cc1 (configuration not stated) |  | inactive: 1.31%
C=CCOc1ccc(C=NNc2ccc(S(=O)(=O)Nc3ccccc3C(=O)O)cc2[N+](=O)[O-])cc1OC | inconclusive: 44.7 µM [inhibitor, partial curve, poor fit] | 
CC1(C)Cc2c(sc(NC(=O)Cc3ccccc3)c2C#N)C(C)(C)N1 | inconclusive: 89.1 µM [inhibitor, single point] | 
COc1cc(/C=C2\SC(=S)N(Nc3ccccc3)C2=O)ccc1O | inconclusive: 50.1 µM [inhibitor, partial curve, poor fit] | 
COc1cc(Cl)c(NC(=O)C2CCN(c3nccnc3Oc3ccc(C)cc3)CC2)c(OC)c1 | inconclusive: 44.7 µM [inhibitor, partial curve, poor fit] | 
Cc1cccc(NC(=O)CSc2nnc(Cc3ccccc3)n2-n2cccc2)c1 |  | inactive: -15.6%
Cc1ccc2c(CSc3nncn3C)cc(=O)oc2c1 | inconclusive: 100 µM [inhibitor, single point] | 
COc1ccc(OC)c(Nc2nc(-c3sc(NC(=O)CC(C)C)nc3C)cs2)c1 | inconclusive: 3.98 µM [inhibitor, full curve] | 
CCN1C(=O)CC(C(=O)OC)=C1C |  | inactive: 5.53%
Cc1cc(C)nc(-n2nc(C)c3c(=O)[nH]c(C(F)(F)F)nc32)n1 |  | inactive: -25.8%
Cc1nc2scc(-c3ccccc3)c2c(=O)o1 |  | inactive: 12.2%
O=C(C(=O)N1CCC(Cc2ccccc2)CC1)c1ccccc1 | inconclusive: 35.5 µM [inhibitor, partial curve, poor fit] | 
CC(C)CNc1nc(SCC(=O)Nc2ccccc2)nc(N2CCOCC2)n1 |  | inactive: -4.32%
CCCCn1c(=O)[nH]c(=O)c2c1nc(COC(=O)/C=C/c1cc(Cl)c(OC)c(OC)c1)n2C | inconclusive: 28.2 µM [inhibitor, partial curve, poor fit] | 
N#Cc1ccc2c(c1)NC(=O)C1CCCN21 (configuration not stated) | inconclusive: 89.1 µM [inhibitor, partial curve, poor fit] | 
CCOC(=O)[C@]12CCCC=C1N(Cc1ccc3c(c1)OCO3)C(=O)[C@H](CC(=O)NCC1CCCCC1)C2 | inconclusive: 100 µM [inhibitor, single point] | 
COc1ccc(CC(=O)Nc2ccc(S(=O)(=O)N3CCC(C)CC3)cc2)c(OC)c1 | inconclusive: 22.4 µM [inhibitor, partial curve] | 

Grouped by structure: the entries above with nitrogen in an aromatic ring.
SMILES | Potency | activity change, negative = inhibition
Nc1nc(=O)c2ccccc2s1 | inconclusive: 50.1 µM [inhibitor, partial curve, poor fit] | 
CCCc1nc2nc(C)c(NS(=O)(=O)c3ccc(F)cc3)c(=O)n2[nH]1 | inconclusive: 50.1 µM [inhibitor, partial curve, poor fit] | 
Cc1ccccc1-c1nnc(NC(=O)Nc2ccccc2)s1 |  | inactive: -15.7%
CCN(CC)C(=O)c1cccc(NC(=O)c2cccc3cccnc23)c1 |  | inactive: -23%
COc1cc(Cl)c(NC(=O)C2CCN(c3nccnc3Oc3ccc(C)cc3)CC2)c(OC)c1 | inconclusive: 44.7 µM [inhibitor, partial curve, poor fit] | 
Cc1cccc(NC(=O)CSc2nnc(Cc3ccccc3)n2-n2cccc2)c1 |  | inactive: -15.6%
Cc1ccc2c(CSc3nncn3C)cc(=O)oc2c1 | inconclusive: 100 µM [inhibitor, single point] | 
COc1ccc(OC)c(Nc2nc(-c3sc(NC(=O)CC(C)C)nc3C)cs2)c1 | inconclusive: 3.98 µM [inhibitor, full curve] | 
Cc1cc(C)nc(-n2nc(C)c3c(=O)[nH]c(C(F)(F)F)nc32)n1 |  | inactive: -25.8%
Cc1nc2scc(-c3ccccc3)c2c(=O)o1 |  | inactive: 12.2%
CC(C)CNc1nc(SCC(=O)Nc2ccccc2)nc(N2CCOCC2)n1 |  | inactive: -4.32%
CCCCn1c(=O)[nH]c(=O)c2c1nc(COC(=O)/C=C/c1cc(Cl)c(OC)c(OC)c1)n2C | inconclusive: 28.2 µM [inhibitor, partial curve, poor fit] | 

The list continues:

SMILES | Potency | activity change, negative = inhibition
COc1ccc(Cn2nnnc2CN(Cc2cc3ccc(C)cc3[nH]c2=O)C2CCCC2)cc1 |  | inactive: -13.6%
COc1ccc(NC(=O)C23CC4CC(C2)CC(n2cnc(Br)n2)(C4)C3)c(OC)c1 | inconclusive: 3.55 µM [inhibitor, full curve, poor fit] | 
COCc1n[nH]c(=S)n1-c1ccccc1 | inconclusive: 35.5 µM [inhibitor, partial curve, poor fit] | 
CCOc1cc(OCC)cc(C(=O)NCCCN2CCOCC2)c1 |  | inactive: -12.3%
COc1ccc(-c2nn3c(-c4ccco4)nnc3s2)cc1OC |  | inactive: 0%
CC1CCN(C(=O)c2cc3c(=O)n(C)c4ccccc4c3s2)CC1 |  | inactive: -27.4%
Cc1cc(OCC(=O)Nc2ccc3nsnc3c2)cc(C)c1Cl |  | inactive: 84.8%
O=C(c1cc([N+](=O)[O-])ccc1N1CCOCC1)N1CCN(c2ccc([N+](=O)[O-])cc2)CC1 |  | inactive: -12.6%
Cc1c(C(=O)OCC(=O)Nc2c(C)n(C)n(-c3ccccc3)c2=O)cccc1[N+](=O)[O-] |  | inactive: -0.385%
COc1ccc2cc(C#N)c(SCC(=O)N3CCCC3)nc2c1 | inconclusive: 100 µM [inhibitor, partial curve, poor fit] | 
CC(C)c1ccc(CCCN)cc1 |  | inactive: 42.3%
CCc1cc(=O)oc2cc(OC(C)C(=O)NC3CCCCCC3)ccc12 (configuration not stated) | inconclusive: 100 µM [inhibitor, single point] | 
O=C(c1coc2ccccc12)N1CCN(Cc2cnc[nH]2)CC(O)C1 (configuration not stated) |  | inactive: 92.5%
c1ccc(CN2CCCCC2c2nc(CCOCC3CCCC3)no2)nc1 (configuration not stated) |  | inactive: 62.9%
O=C(Cn1c(=O)n(Cc2ccc(F)cc2)c(=O)c2ccccc21)Nc1ccc(F)cc1 | inconclusive: 126 µM [inhibitor, partial curve, poor fit] | 
c1ccc(CCNCCCOc2cccc3ccccc23)cc1 | inconclusive: 12.6 µM [inhibitor, full curve, poor fit] | 
Cc1ccc(Cl)c(NC(=O)COC(=O)c2cc[n+]([O-])cc2)c1Cl | inconclusive: 56.2 µM [inhibitor, partial curve, poor fit] | 
O=C(CSc1nnc(C2CC2)n1-c1ccccc1)NC1CCS(=O)(=O)C1 (configuration not stated) | inconclusive: 126 µM [inhibitor, partial curve, poor fit] | 
COc1cccc(-n2c(SCC(=O)Nc3cccc(Cl)c3)nc3c(oc4ccccc43)c2=O)c1 |  | inactive: -22.5%
C(=Nc1ccc(Nc2ccccc2)cc1)c1ccc(OCc2ccccc2)cc1 | inconclusive: 6.31 µM [inhibitor, full curve, poor fit] | 
O=c1c2c(O)cc(O)cc2oc2c(O)ccc(O[C@H]3O[C@@H](CO)[C@H](O)[C@@H](O)[C@@H]3O)c12 | inconclusive: 44.7 µM [inhibitor, partial curve, poor fit] | 
OC(CNCCc1ccc(Cl)cc1Cl)COc1ccccc1 (configuration not stated) | active: 12.6 µM | 
COc1ccc(/C=C\C(=O)NC2CC(=O)N(c3ccc(F)cc3)C2)cc1OC (configuration not stated) | inconclusive: 158 µM [inhibitor, partial curve, poor fit] | 
CCc1cc(-c2n[nH]c(=S)n2CC)cs1 | inconclusive: 79.4 µM [inhibitor, partial curve, poor fit] | 

Given tab-delimited: part of the list above
SMILES	Potency	activity change, negative = inhibition
C(=Nc1ccc(Nc2ccccc2)cc1)c1ccc(OCc2ccccc2)cc1	inconclusive: 6.31 µM [inhibitor, full curve, poor fit]	
O=c1c2c(O)cc(O)cc2oc2c(O)ccc(O[C@H]3O[C@@H](CO)[C@H](O)[C@@H](O)[C@@H]3O)c12	inconclusive: 44.7 µM [inhibitor, partial curve, poor fit]	

Next compounds

SMILES | Potency | activity change, negative = inhibition
COc1ccc(N2C(S)=C(C#N)C(=O)NC2c2ccc(OC)c(OC)c2)cc1 (configuration not stated) |  | inactive: -3.4%
CCOC(=O)c1c(-c2ccccc2)nc2c(C)cccn12 |  | inactive: -3.77%
Cc1cccc(CN2CCN(Cc3ccco3)CC2)c1 | inconclusive: 0.398 µM [inhibitor, full curve, poor fit] | 
Oc1cccc(-c2cc(C3=CCOCC3)c3cncn3c2)c1 | inconclusive: 3.55 µM [inhibitor, full curve] | 
CC(C)c1cc(NC(=O)C(C)(C)C)cc(C(C)C)c1O |  | inactive: 77.6% [at 57.4 µM]
O=C(CSc1nc2c(sc3ccccc32)c(=O)n1CCCC(=O)NC1CCCC1)Nc1ccc(F)cc1 | inconclusive: 35.5 µM [inhibitor, partial curve, poor fit] | 
CS(=O)(=O)c1oc(-c2ccc(F)cc2)nc1S(=O)(=O)c1ccc(Cl)cc1 | inconclusive: 0.447 µM [inhibitor, full curve, poor fit] | 
COC(=O)c1cc(=O)nc2sc(-c3ccccc3)nn12 |  | inactive: 1.25%
COc1cccc(/C=C2\Oc3cc(OC(=O)C(C)(C)C)ccc3C2=O)c1OC |  | inactive: -1.51%
Cc1cc(C)n(-c2cccc(CN3CCN(C4CCNC4)CC3)c2)n1 (configuration not stated) | inconclusive: 7.94 µM [inhibitor, partial curve, poor fit] | 
Cc1cc(Br)cn2c(Cc3cccc(F)c3)c(-c3cccc(Cl)c3)nc12 | inconclusive: 35.5 µM [inhibitor, single point] | 
CCc1nc2c(OCc3ccc(Cl)cc3)cccn2c1N(C)C(=O)c1cccs1 |  | inconclusive: -32.5% [inhibitor]
C=CCSC1=C(C#N)C(c2cccc(OC)c2)CC(=O)N1 (configuration not stated) | inconclusive: 50.1 µM [inhibitor, single point] | 
CC(C)Nc1nc(-c2ccc(NC(=O)C(C)(C)C)cc2)cs1 | inconclusive: 28.2 µM [inhibitor, partial curve, poor fit] | 
COC(=O)[C@H](CC(C)C)N1Cc2nnn(CC3CCCCC3)c2-c2ccccc2S1(=O)=O | inconclusive: 89.1 µM [inhibitor, single point] | 
Cc1ccc(SC(C)C(=O)Nc2cccnc2)cc1 (configuration not stated) |  | inactive: 0%
COc1cc2sc3ccc(C#CC4(O)CCCCC4)cc3c(=O)c2cc1OC | inconclusive: 44.7 µM [inhibitor, partial curve, poor fit] | 
CN(C)c1cc(NC(=O)CN2CCCC2)c2ccccc2n1 | inconclusive: 0.562 µM [inhibitor, partial curve, poor fit] | 
Cc1ccc(SCc2nc(N)nc(Nc3ccccc3C)n2)cc1C |  | inactive: -9.06%
CCOc1ccc(S(=O)(=O)NC2CC2)cc1C(N)=O | inconclusive: 126 µM [inhibitor, single point] | 
CCCCC(C)Sc1nc2c([nH]1)c(=S)n(C)c(=O)n2C (configuration not stated) |  | inactive: -27.5%
COc1ccc(C(=O)Nn2c(SCC(=O)NC3CCCCC3)nc3ccccc3c2=O)cc1 |  | inactive: 0%
COCCNC(=S)NC(=O)c1ccc(C(C)(C)C)cc1 | active: 12.6 µM | 
CCOc1ccc(S(=O)(=O)NCc2ccc3c(c2)OCO3)cc1C(=O)O | inconclusive: 50.1 µM [inhibitor, partial curve, poor fit] | 

From PubChem BioAssay AID1671190 (National Center for Advancing Translational Sciences (NCATS), 2021)
